Results published in patent publication US20210115113A1 (CITY OF HOPE, published 2021).
Results are given in words; binding and its absence hold for the method and conditions named. Some results given as binding are weak or reduced against the parent protein; the word gives no strength.

Protein sequences, listed by entry. Tags and fused reporters are not part of them. Lines headed by an entry give the natural chain unless they say otherwise; changes in a name come on top.
UniProt P03200: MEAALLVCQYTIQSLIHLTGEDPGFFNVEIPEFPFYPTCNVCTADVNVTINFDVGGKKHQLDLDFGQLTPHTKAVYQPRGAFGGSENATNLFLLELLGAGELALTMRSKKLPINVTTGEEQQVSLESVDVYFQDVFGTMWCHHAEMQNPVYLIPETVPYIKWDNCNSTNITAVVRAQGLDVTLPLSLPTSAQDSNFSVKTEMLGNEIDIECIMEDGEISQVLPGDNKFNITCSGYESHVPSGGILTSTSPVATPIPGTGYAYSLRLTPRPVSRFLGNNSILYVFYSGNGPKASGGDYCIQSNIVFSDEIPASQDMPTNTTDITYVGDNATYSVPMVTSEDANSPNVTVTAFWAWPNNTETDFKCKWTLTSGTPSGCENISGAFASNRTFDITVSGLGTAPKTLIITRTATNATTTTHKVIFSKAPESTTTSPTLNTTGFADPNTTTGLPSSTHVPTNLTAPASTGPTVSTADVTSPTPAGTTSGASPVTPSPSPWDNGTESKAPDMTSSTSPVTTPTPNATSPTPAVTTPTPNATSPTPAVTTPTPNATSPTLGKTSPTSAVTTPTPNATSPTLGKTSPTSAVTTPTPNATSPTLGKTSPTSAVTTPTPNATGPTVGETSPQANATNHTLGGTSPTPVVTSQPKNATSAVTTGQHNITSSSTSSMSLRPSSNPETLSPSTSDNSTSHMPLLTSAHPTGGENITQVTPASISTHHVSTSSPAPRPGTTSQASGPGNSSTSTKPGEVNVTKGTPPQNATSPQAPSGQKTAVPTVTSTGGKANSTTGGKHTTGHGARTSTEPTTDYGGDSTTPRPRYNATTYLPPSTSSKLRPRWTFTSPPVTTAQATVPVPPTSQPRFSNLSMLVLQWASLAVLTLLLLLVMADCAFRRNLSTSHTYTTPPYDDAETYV

Assays:
[1] = molecular target: recombinant EBV gp350 ectodomain protein (soluble, purified) (Epstein-Barr virus) (UniProt P03200); assay: ELISA binding to purified EBV gp350/220
[2] = molecular target: recombinant EBV gp350 ectodomain protein (soluble, purified) (Epstein-Barr virus) (UniProt P03200); assay: indirect ELISA, 10 µg/ml purified antibody
[3] = molecular target: recombinant EBV gp350 ectodomain protein (soluble, purified) (Epstein-Barr virus) (UniProt P03200); assay: indirect ELISA, soluble gp350 0.5 µg/ml

Row | Binder | binding [1] | binding [2] | binding [3]
1 | HB17 (antibody, V domains shown) VH: AELVIPGASVKVSCKASGYTFTSYWIHWVKQWPGQGLEWIGEINPNNGHTNYNEKFKSKATLTVDKSSSTAYMQLSSLTSEDSAVYYCARNLFYYSRPDYWGQGTSVTVSS VL: SSLSASLGDRVTISCRASQDIGNYLNWYQQKPDGTIKLLIYYTSRLHSGVPSRFSGSGSGTDYSLTISNLEEEDIATYFCQQGNTLPPTFGGGTKLEIKR | binds | binds | binds
2 | HB5 (antibody, V domains shown, also called mHB5) VH: AELVRPGASVKISCKAFGYTFTNHNINWVKQRPGQGLDWIGYINPYNDYTSYNQKFKGKATLTVDKSSNTAYMELSSLTSEDSAVYYCARSEGWLRRGAWFAYWGQGTLVTVSA VL: AILSVSPGERVSFSCRASQSIGTSIHWYQQRTNDSPRLLIKYASESISGIPPRFSGSGSGTDFTLSINSVESEDIADYHCQQSNSWPMLTFGAGTKLELKR | binds | binds | binds
3 | HB22 (antibody, V domains shown) VH: PGLVAPSQSLSITCTVSGFSLTNYGIHWVRQPPGKGLEWLVVIWSDGSTIYNSALKSRLSISKDNSKSQVFLKMNSLQTDDTAMYYCARNYYGNSYPAWFAYWGQGTLVTVSA VL: LSLPVSLGDQASISCRSSQSIVHSNGNTYLEWYLQKPGQSPKLLIYKVSNRFSGVPDRFSGSGSGTDFTLRISRVEAEDLGVYYCFQGSHVPWTFGGGTKLEIKR | binds | binds | binds
4 | HB18 (antibody, V domains shown) VH: PELKKPGETVKISCKASGYSFTNYGMNWVKQAPGKGLKWMGWINTYTGEPTYADDFKGRFAFSLETSASTAFLQINNLKNEDTATYLCARYYYGSVYSAWFAYWGQGTLVTVSA VL: LSLPVSLGDQASISCRSSQSIVHSNGNTYLEWYLQKAGQSPKLLIYKVSNRFSGVPDRFGGSGSGTDFTLKISRVEAEDLGVYYCFQGSHVPYTFGGGTKLEIKR |  | binds | binds
5 | HB14 (antibody, V domains shown) VH: SGAELVRPGASVNLSCKALGYTFTDYEMHWVKQTPVYGLEWIGTIHPRRGGTAYNQRFKGKAALTADKSSSTAYMELSSLTSEDSAVYYCARYGYPWYFDVWGAGTTVTVSS VL: LSLPVSLGDQASISCRSSQSIVHDNGNTYLEWYLQKPGQSPKLLIYKVSNRFSGVLDKFSGSGSGTDFTLKISRVEAEDLGIYYCFQGSHVPPTFGGGTKLEIK | binds | binds | binds
